# Laboratory results reported in the supplement of paper PMC8728848.
# The other results are listed elsewhere or left out.
# B1: AT5G17240(42) (Arabidopsis thaliana), Q6NQJ8 (protein)
# chain: MDLEHQTMETFLRWAAEIGISDSIDSSRFRDSCLGHSLSVSDFPDAGGRGLGAARELKKGELVLKVPRKALMTTESIIAKDLKLSDAVNLHNSLSSTQILSVCLLYEMSKEKKSFWYPYLFHIPRDYDLLATFGNFEKQALQVEDAVWATEKATAKCQSEWKEAGSLMKELELKPKFRSFQAWLWASATISSRTLHVPWDSAGCLCPVGDLFNYDAPGDYSNTPQGPESANNVEEAGLVVETHSERLTDGGFEEDVNAYCLYARRNYQLGEQVLLCYGTYTNLELLEHYGFMLEENSNDKVFIPLETSLFSLASSWPKDSLYIHQDGKLSFALISTLRLWLIPQSQRDKSVMRLVYAGSQISVKNEILVMKWMSEKCGSVLRDLPTSVTEDTVLLHNIDKLQDPELRLEQKETEAFGSEVRAFLDANCLWDVTVLSGKPIEFSRKTSRMLSKWRWSVQWRLSYKRTLADCISYCNEKMNNLLGTQDRLRDL
# How the values were obtained:
# Assay in all cases: glycan array binding signal (z-score within array); higher = stronger binding
# Settings in all cases: glycan notation: IUPAC condensed, linker removed
# Fuc(a1-2)Gal = biological target: Fuc(a1-2)Gal
# Summary of the method: (§1)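 Arrays were curated from the Consortium for Functional Glycomics database, 3228 in total, and kept only where the protein sequence was available. Binding is expressed as a within-array Z-score. This score was averaged across arrays of the same protein sequence at different concentrations or buffers and across linkers, and negative values can be read as non-binding.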
# Fuc(a1-2)Gal(b1-3)GalNAc = biological target: Fuc(a1-2)Gal(b1-3)GalNAc
# Summary of the method: as §1
# [1] = biological target: Fuc(a1-2)Gal(b1-3)GalNAc(a1-3)[Fuc(a1-2)]Gal(b1-4)Glc
# Summary of the method: as §1
# [2] = biological target: Fuc(a1-2)Gal(b1-3)GalNAc(a1-3)[Fuc(a1-2)]Gal(b1-4)GlcNAc
# Summary of the method: as §1
# [3] = biological target: Fuc(a1-2)Gal(b1-3)GalNAc(b1-3)Gal
# Summary of the method: as §1
# [4] = biological target: Fuc(a1-2)Gal(b1-3)GalNAc(b1-3)Gal(a1-4)Gal(b1-4)Glc
# Summary of the method: as §1
# [5] = biological target: Fuc(a1-2)Gal(b1-3)GalNAc(b1-4)[Neu5Ac(a2-3)]Gal(b1-4)Glc
# Summary of the method: as §1
# Fuc(a1-2)Gal(b1-3)GlcNAc = biological target: Fuc(a1-2)Gal(b1-3)GlcNAc
# Summary of the method: as §1
# [6] = biological target: Fuc(a1-2)Gal(b1-3)GlcNAc(b1-2)Man(a1-3)[Fuc(a1-2)Gal(b1-3)GlcNAc(b1-2)Man(a1-6)]Man(b1-4)GlcNAc(b1-4)GlcNAc
# Summary of the method: as §1
# [7] = biological target: Fuc(a1-2)Gal(b1-3)GlcNAc(b1-2)Man(a1-3)[Fuc(a1-2)Gal(b1-3)GlcNAc(b1-2)Man(a1-6)]Man(b1-4)GlcNAc(b1-4)[Fuc(a1-6)]GlcNAc
# Summary of the method: as §1
# [8] = biological target: Fuc(a1-2)Gal(b1-3)GlcNAc(b1-3)Gal(b1-4)Glc
# Summary of the method: as §1
# [9] = biological target: Fuc(a1-2)Gal(b1-3)GlcNAc(b1-3)GalNAc
# Summary of the method: as §1
# [10] = biological target: Fuc(a1-2)Gal(b1-3)GlcNAc(b1-3)[Fuc(a1-2)Gal(b1-3)GlcNAc(b1-6)]GalNAc
# Summary of the method: as §1
# [11] = biological target: Fuc(a1-2)Gal(b1-3)GlcNAc(b1-3)[Gal(b1-4)GlcNAc(b1-6)]Gal(b1-4)Glc
# Summary of the method: as §1
# [12] = biological target: Fuc(a1-2)Gal(b1-3)GlcNAc(b1-3)[Neu5Ac(a2-6)Gal(b1-4)GlcNAc(b1-6)]Gal(b1-4)Glc
# Summary of the method: as §1
# [13] = biological target: Fuc(a1-2)Gal(b1-3)GlcNAc6S
# Summary of the method: as §1
# [14] = biological target: Fuc(a1-2)Gal(b1-3)[Fuc(a1-4)]GlcNAc
# Summary of the method: as §1
# [15] = biological target: Fuc(a1-2)Gal(b1-3)[Fuc(a1-4)]GlcNAc(b1-2)Man(a1-3)[Fuc(a1-2)Gal(b1-3)[Fuc(a1-4)]GlcNAc(b1-2)Man(a1-3)]Man(b1-4)GlcNAc(b1-4)GlcNAc
# Summary of the method: as §1
# [16] = biological target: Fuc(a1-2)Gal(b1-3)[Fuc(a1-4)]GlcNAc(b1-2)Man(a1-3)[Fuc(a1-2)Gal(b1-3)[Fuc(a1-4)]GlcNAc(b1-2)Man(a1-6)]Man(b1-4)GlcNAc(b1-4)[Fuc(a1-6)]GlcNAc(b1-4)[Fuc(a1-6)]GlcNAc
# Summary of the method: as §1
# [17] = biological target: Fuc(a1-2)Gal(b1-3)[Fuc(a1-4)]GlcNAc(b1-3)[Fuc(a1-3)[Gal(b1-4)]GlcNAc(b1-6)]Gal(b1-4)Glc
# Summary of the method: as §1
# [18] = biological target: Fuc(a1-2)Gal(b1-3)[Fuc(a1-4)]GlcNAc(b1-3)[Gal(b1-4)GlcNAc(b1-6)]Gal(b1-4)Glc
# Summary of the method: as §1
# [19] = biological target: Fuc(a1-2)Gal(b1-4)Fuc(a1-3)]GlcNAc(b1-2)Man(a1-3)[Fuc(a1-2)Gal(b1-4)[Fuc(a1-3)]GlcNAc(b1-2)Man(a1-6)]Man(b1-4)GlcNAc(b1-4)GlcNAc
# Summary of the method: as §1
# Fuc(a1-2)Gal(b1-4)Glc = biological target: Fuc(a1-2)Gal(b1-4)Glc
# Summary of the method: as §1
# Fuc(a1-2)Gal(b1-4)Glc6S = biological target: Fuc(a1-2)Gal(b1-4)Glc6S
# Summary of the method: as §1
# Fuc(a1-2)Gal(b1-4)GlcNAc = biological target: Fuc(a1-2)Gal(b1-4)GlcNAc
# Summary of the method: as §1
# [20] = biological target: Fuc(a1-2)Gal(b1-4)GlcNAc(b1-2)Man
# Summary of the method: as §1
# [21] = biological target: Fuc(a1-2)Gal(b1-4)GlcNAc(b1-2)Man(a1-3)[Fuc(a1-2)Gal(b1-4)GlcNAc(b1-2)Man(a1-6)]Man(b1-4)GlcNAc(b1-4)GlcNAc
# Summary of the method: as §1
# [22] = biological target: Fuc(a1-2)Gal(b1-4)GlcNAc(b1-2)Man(a1-3)[Fuc(a1-2)Gal(b1-4)GlcNAc(b1-2)Man(a1-6)]Man(b1-4)GlcNAc(b1-4)[Fuc(a1-6)]GlcNAc
# Summary of the method: as §1
# [23] = biological target: Fuc(a1-2)Gal(b1-4)GlcNAc(b1-2)[Fuc(a1-2)Gal(b1-4)GlcNAc(b1-4)]Man(a1-3)[Fuc(a1-2)Gal(b1-4)GlcNAc(b1-2)Man(a1-6)]Man(b1-4)GlcNAc(b1-4)GlcNAc
# Summary of the method: as §1
# [24] = biological target: Fuc(a1-2)Gal(b1-4)GlcNAc(b1-3)Gal(b1-4)GlcNAc
# Summary of the method: as §1
# [25] = biological target: Fuc(a1-2)Gal(b1-4)GlcNAc(b1-3)Gal(b1-4)GlcNAc(b1-2)Man(a1-3)[Fuc(a1-2)Gal(b1-4)GlcNAc(b1-3)Gal(b1-4)GlcNAc(b1-2)Man(a1-6)]Man(b1-4)GlcNAc(b1-4)GlcNAc
# Summary of the method: as §1
# [26] = biological target: Fuc(a1-2)Gal(b1-4)GlcNAc(b1-3)Gal(b1-4)GlcNAc(b1-3)Gal(b1-4)GlcNAc
# Summary of the method: as §1
# [27] = biological target: Fuc(a1-2)Gal(b1-4)GlcNAc(b1-3)GalNAc
# Summary of the method: as §1
# [28] = biological target: Fuc(a1-2)Gal(b1-4)GlcNAc(b1-3)[Fuc(a1-2)Gal(b1-4)GlcNAc(b1-6)]GalNAc
# Summary of the method: as §1
# [29] = biological target: Fuc(a1-2)Gal(b1-4)GlcNAc(b1-3)[Fuc(a1-3)[Gal(b1-4)]GlcNAc(b1-6)]Gal(b1-4)Glc
# Summary of the method: as §1
# [30] = biological target: Fuc(a1-2)Gal(b1-4)GlcNAc(b1-6)GalNAc
# Summary of the method: as §1
# [31] = biological target: Fuc(a1-2)Gal(b1-4)GlcNAc6S
# Summary of the method: as §1
# [32] = biological target: Fuc(a1-2)Gal(b1-4)[Fuc(a1-3)]GlcNAc
# Summary of the method: as §1
# [33] = biological target: Fuc(a1-2)Gal(b1-4)[Fuc(a1-3)]GlcNAc(b1-2)Man(a1-3)[Fuc(a1-2)Gal(b1-4)[Fuc(a1-3)]GlcNAc(b1-2)Man(a1-6)]Man(b1-4)GlcNAc(b1-4)[Fuc(a1-6)]GlcNAc
# Summary of the method: as §1
# [34] = biological target: Fuc(a1-2)Gal(b1-4)[Fuc(a1-3)]GlcNAc(b1-2)[Fuc(a1-2)Gal(b1-4)[Fuc(a1-3)]GlcNAc(b1-4)]Man(a1-3)[Fuc(a1-2)Gal(b1-4)[Fuc(a1-3)]GlcNAc(b1-2)Man(a1-6)]Man(b1-4)GlcNAc(b1-4)GlcNAc
# Summary of the method: as §1
# [35] = biological target: Fuc(a1-2)Gal(b1-4)[Fuc(a1-3)]GlcNAc(b1-3)Gal(b1-4)[Fuc(a1-3)]GlcNAc
# Summary of the method: as §1
# [36] = biological target: Fuc(a1-2)Gal(b1-4)[Fuc(a1-3)]GlcNAc(b1-3)Gal(b1-4)[Fuc(a1-3)]GlcNAc(b1-3)Gal(b1-4)[Fuc(a1-3)]GlcNAc
# Summary of the method: as §1
# [37] = biological target: Fuc(a1-2)Gal(b1-4)[Fuc(a1-3)]GlcNAc(b1-3)GalNAc
# Summary of the method: as §1
# [38] = biological target: Fuc(a1-2)Gal(b1-4)[Fuc(a1-3)]GlcNAc(b1-3)[Neu5Ac(a2-6)Gal(b1-4)GlcNAc(b1-6)]Gal(b1-4)Glc
# Summary of the method: as §1
# [39] = biological target: Fuc(a1-2)Gal3S(b1-4)GlcNAc
# Summary of the method: as §1
binder,measurement,setting,value
B1,glycan array binding signal (z-score),Fuc(a1-2)Gal,-0.054
same,glycan array binding signal (z-score),Fuc(a1-2)Gal(b1-3)GalNAc,-0.459
same,glycan array binding signal (z-score),[1],0.123
same,glycan array binding signal (z-score),[2],-0.485
same,glycan array binding signal (z-score),[3],0.427
same,glycan array binding signal (z-score),[4],0.174
same,glycan array binding signal (z-score),[5],0.062
same,glycan array binding signal (z-score),Fuc(a1-2)Gal(b1-3)GlcNAc,-0.094
same,glycan array binding signal (z-score),[6],-0.113
same,glycan array binding signal (z-score),[7],0.063
same,glycan array binding signal (z-score),[8],0.124
same,glycan array binding signal (z-score),[9],0.114
same,glycan array binding signal (z-score),[10],0.001
same,glycan array binding signal (z-score),[11],0.636
same,glycan array binding signal (z-score),[12],-0.128
same,glycan array binding signal (z-score),[13],0.337
same,glycan array binding signal (z-score),[14],-0.263
same,glycan array binding signal (z-score),[15],-0.056
same,glycan array binding signal (z-score),[16],0.42
same,glycan array binding signal (z-score),[17],0.294
same,glycan array binding signal (z-score),[18],-0.39
same,glycan array binding signal (z-score),[19],-0.164
same,glycan array binding signal (z-score),Fuc(a1-2)Gal(b1-4)Glc,-0.258
same,glycan array binding signal (z-score),Fuc(a1-2)Gal(b1-4)Glc6S,0.452
same,glycan array binding signal (z-score),Fuc(a1-2)Gal(b1-4)GlcNAc,-0.267
same,glycan array binding signal (z-score),[20],-0.706
same,glycan array binding signal (z-score),[21],-0.437
same,glycan array binding signal (z-score),[22],-0.089
same,glycan array binding signal (z-score),[23],-0.468
same,glycan array binding signal (z-score),[24],-0.132
same,glycan array binding signal (z-score),[25],0.478
same,glycan array binding signal (z-score),[26],-0.551
same,glycan array binding signal (z-score),[27],0.068
same,glycan array binding signal (z-score),[28],-0.658
same,glycan array binding signal (z-score),[29],-0.373
same,glycan array binding signal (z-score),[30],0.065
same,glycan array binding signal (z-score),[31],0.365
same,glycan array binding signal (z-score),[32],-0.241
same,glycan array binding signal (z-score),[33],0.299
same,glycan array binding signal (z-score),[34],0.365
same,glycan array binding signal (z-score),[35],0.458
same,glycan array binding signal (z-score),[36],0.313
same,glycan array binding signal (z-score),[37],0.035
same,glycan array binding signal (z-score),[38],-0.37
same,glycan array binding signal (z-score),[39],0.252

# 2 entries picked at random from the list so far, as already listed:
binder,measurement,setting,value
B1,glycan array binding signal (z-score),[16],0.42
same,glycan array binding signal (z-score),[31],0.365
